Some compounds share one wording; it may come from a single statement.
Tested on: mice
Assay: SmartCube behavioral signature similarity analysis
Type: in vivo, mouse
Conditions: for Discrimination rate vs Clozapine (1.0 mg/kg) / Discrimination rate vs Olanzapine (0.25 mg/kg) / Discrimination rate vs Risperidone (0.06 mg/kg): SmartCube, rate of 0.70 or lower = similar; for SmartCube behavioral signature, similarity to drug class (in words): i.p.
Description: In addition to the reversal of L-687,414 induced hyperlocomotion experiment as described above, some compounds of the present invention have been tested in SmartCube®, an automated system in which the behaviors of compound-treated mice in response to multiple challenges are captured by digital video and analyzed with computer algorithms (Roberds et al., Frontiers in Neuroscience, 2011, Vol. 5, Art. 103, 1-4; Vadim Alexandrov, Dani Brunner, Taleen Hanania, Emer Leahy Eur. J. Pharmacol. 2015, 750, 82-99). In this way, the neuro-pharmacological effects of a test compound can be predicted by similarity to major classes of compounds, such as antipsychotics, anxiolytics and antidepressants.
SmartCube® was used to compare the behavioral signature of a test compound to a database of behavioral signatures obtained from a large set of clinically approved reference drugs, grouped per indications. In this way, the neuro-pharmacological effects of a test compound can be predicted by similarity to major classes of compounds, such as antipsychotics, anxiolytics and antidepressants. This approach is ideally suited to screen collections of existing drugs or drug candidates with previously unknown neuropharmacology, which could expedite the development of new and unexpected treatments for psychiatric disorders.
Some compounds of the present invention were injected i.p. at different doses 15 minutes before the test. At least 8 mice were used in each treatment group. Digital videos of the subjects were processed with computer vision algorithms to extract over 2000 dependent measures including frequency and duration of many different behavioral states. The results of the classifications are presented as bar charts for each compound and dose (mg/kg), the Y-axis indicates the relative probability that the test compound will show efficacy in the specific CNS indication.
Compounds of the present invention show similar signatures to those of atypical antipsychotics. An independent analysis was performed on the unclassified data to determine the similarity of the example compounds to active doses of known atypical antipsychotics. For this analysis, we use discrimination rate as the measure of separability between the two drugs, i.e. one drug's “distinguishability” from another. A rate equal to 50% (or 0.5) corresponds to zero distinguishability. […] In most cases, the example compounds show a similarity to risperidone, clozapine and olanzapine with a discrimination rate of 0.70.

SMILES	Discrimination rate vs Clozapine (1.0 mg/kg) (test compound 5 mg/kg i.p.)	Discrimination rate vs Olanzapine (0.25 mg/kg) (test compound 5 mg/kg i.p.)	Discrimination rate vs Risperidone (0.06 mg/kg) (test compound 5 mg/kg i.p.)	SmartCube behavioral signature, similarity to drug class (in words)	Discrimination rate vs Clozapine (1.0 mg/kg) (test compound 3 mg/kg i.p.)	Discrimination rate vs Olanzapine (0.25 mg/kg) (test compound 3 mg/kg i.p.)	Discrimination rate vs Risperidone (0.06 mg/kg) (test compound 3 mg/kg i.p.)
Cc1ncc(-c2ccc3c(c2)N(c2ccc(C(=O)N(C)C)cn2)C(=O)C3(C)C)cn1 [Example 29, 6-(3,3-Dimethyl-6-(2-methylpyrimidin-5-yl)-2-oxoindolin-1-yl)-N,N-dimethylnicotinamide]	0.60	0.67	0.63	similarity to atypical antipsychotics	–	–	–
Cc1ncc(-c2ccc3c(c2)N(c2cnc(C(=O)N(C)C)cn2)C(=O)C3(C)C)cn1 [Example 11, 5-[3,3-Dimethyl-6-(2-methylpyrimidin-5-yl)-2-oxoindol-1-yl]-dimethylpyrazine-2-carboxamide]	–	–	–	similarity to atypical antipsychotics	0.57	0.57	0.64
CNC(=O)c1ccnc(N2C(=O)C(C)(C)c3ccc(-c4cnc(C)nc4)cc32)n1 [Example 16, 2-(3,3-Dimethyl-6-(2-methylpyrimidin-5-yl)-2-oxoindolin-1-yl)-N-methylpyrimidine-4-carboxamide]	–	–	–	similarity to atypical antipsychotics	0.56	0.54	0.52
COCCNC(=O)c1cncc(N2C(=O)C(C)(C)c3ccc(-c4cnc(C)nc4)cc32)n1 [Example 7, 6-(3,3-Dimethyl-6-(2-methylpyrimidin-5-yl)-2-oxoindolin-1-yl)-N-(2-methoxyethyl)pyrazine-2-carboxamide]	–	–	–	similarity to atypical antipsychotics	0.57	0.61	0.59
CNC(=O)c1cncc(N2C(=O)C(C)(C)c3ccc(-c4cnc(C)nc4)cc32)n1 [Example 2, 6-(3,3-Dimethyl-6-(2-methylpyrimidin-5-yl)-2-oxoindolin-1-yl)-N-methylpyrazine-2-carboxamide]	–	–	–	similarity to atypical antipsychotics	0.54	0.51	0.63
Cc1ncc(-c2ccc3c(c2)N(c2cccc(C(=O)NC4CC4)n2)C(=O)C3(C)C)cn1 [Example 24, N-Cyclopropyl-6-(3,3-dimethyl-6-(2-methylpyrimidin-5-yl)-2-oxoindolin-1-yl)picolinamide]	–	–	–	similarity to atypical antipsychotics	0.61	0.69	0.65
